Measurements as given in paper PMC9268489.
These are yes or no findings as the source states them, for the method shown. Binding seen in cells or lysates may run through a third protein. Some results given as binding are weak or reduced against the parent protein; the word gives no strength.

Sequences of proteins named here, by UniProt entry; tags and fusion partners are left off. A change or cut given only in a name is not applied to a line headed by its entry. Residues count along the entry.
UniProt Q8NER1: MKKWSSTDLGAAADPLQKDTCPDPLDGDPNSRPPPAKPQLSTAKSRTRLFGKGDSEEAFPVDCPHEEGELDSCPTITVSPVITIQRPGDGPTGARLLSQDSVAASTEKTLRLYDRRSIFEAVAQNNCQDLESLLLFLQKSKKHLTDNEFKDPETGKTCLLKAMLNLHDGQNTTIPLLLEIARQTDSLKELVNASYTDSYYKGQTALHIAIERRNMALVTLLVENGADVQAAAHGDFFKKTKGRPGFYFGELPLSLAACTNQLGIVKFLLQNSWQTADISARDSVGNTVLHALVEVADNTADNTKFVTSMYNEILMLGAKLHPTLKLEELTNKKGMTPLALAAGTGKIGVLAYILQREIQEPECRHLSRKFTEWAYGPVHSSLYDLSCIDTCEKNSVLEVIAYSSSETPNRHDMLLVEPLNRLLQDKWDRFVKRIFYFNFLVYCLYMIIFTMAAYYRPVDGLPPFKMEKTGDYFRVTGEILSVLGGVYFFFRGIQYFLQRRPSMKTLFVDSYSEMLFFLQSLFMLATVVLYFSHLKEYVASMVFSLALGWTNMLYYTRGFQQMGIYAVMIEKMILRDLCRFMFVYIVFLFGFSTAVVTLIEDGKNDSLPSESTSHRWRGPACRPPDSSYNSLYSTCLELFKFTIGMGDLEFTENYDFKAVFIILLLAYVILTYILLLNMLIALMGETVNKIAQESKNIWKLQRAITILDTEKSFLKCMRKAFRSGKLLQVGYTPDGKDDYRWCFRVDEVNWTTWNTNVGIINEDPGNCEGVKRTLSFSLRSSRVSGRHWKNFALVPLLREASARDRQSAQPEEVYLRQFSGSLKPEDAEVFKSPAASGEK
UniProt Q8R0I0, residues 18-805: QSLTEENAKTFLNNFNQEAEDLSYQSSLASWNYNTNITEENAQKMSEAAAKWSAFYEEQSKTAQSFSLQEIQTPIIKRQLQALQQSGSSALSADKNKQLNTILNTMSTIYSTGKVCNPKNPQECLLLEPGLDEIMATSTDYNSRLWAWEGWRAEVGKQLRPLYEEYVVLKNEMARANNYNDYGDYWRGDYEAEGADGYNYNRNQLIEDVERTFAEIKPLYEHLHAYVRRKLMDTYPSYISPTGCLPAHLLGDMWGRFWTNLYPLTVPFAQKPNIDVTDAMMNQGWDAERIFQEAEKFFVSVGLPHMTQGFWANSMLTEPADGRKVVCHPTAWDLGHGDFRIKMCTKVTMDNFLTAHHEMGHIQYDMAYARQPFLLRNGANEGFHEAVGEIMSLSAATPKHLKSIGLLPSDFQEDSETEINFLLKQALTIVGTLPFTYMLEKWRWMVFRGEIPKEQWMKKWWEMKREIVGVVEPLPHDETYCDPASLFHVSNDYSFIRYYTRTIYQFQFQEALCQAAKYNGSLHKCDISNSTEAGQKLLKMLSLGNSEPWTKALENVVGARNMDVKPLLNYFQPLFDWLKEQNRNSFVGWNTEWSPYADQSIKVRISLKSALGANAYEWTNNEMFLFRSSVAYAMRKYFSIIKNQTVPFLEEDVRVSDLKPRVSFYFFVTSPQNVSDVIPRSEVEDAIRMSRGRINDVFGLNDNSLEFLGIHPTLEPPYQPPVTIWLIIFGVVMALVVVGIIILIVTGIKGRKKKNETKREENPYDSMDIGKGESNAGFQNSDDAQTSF
UniProt Q704Y3: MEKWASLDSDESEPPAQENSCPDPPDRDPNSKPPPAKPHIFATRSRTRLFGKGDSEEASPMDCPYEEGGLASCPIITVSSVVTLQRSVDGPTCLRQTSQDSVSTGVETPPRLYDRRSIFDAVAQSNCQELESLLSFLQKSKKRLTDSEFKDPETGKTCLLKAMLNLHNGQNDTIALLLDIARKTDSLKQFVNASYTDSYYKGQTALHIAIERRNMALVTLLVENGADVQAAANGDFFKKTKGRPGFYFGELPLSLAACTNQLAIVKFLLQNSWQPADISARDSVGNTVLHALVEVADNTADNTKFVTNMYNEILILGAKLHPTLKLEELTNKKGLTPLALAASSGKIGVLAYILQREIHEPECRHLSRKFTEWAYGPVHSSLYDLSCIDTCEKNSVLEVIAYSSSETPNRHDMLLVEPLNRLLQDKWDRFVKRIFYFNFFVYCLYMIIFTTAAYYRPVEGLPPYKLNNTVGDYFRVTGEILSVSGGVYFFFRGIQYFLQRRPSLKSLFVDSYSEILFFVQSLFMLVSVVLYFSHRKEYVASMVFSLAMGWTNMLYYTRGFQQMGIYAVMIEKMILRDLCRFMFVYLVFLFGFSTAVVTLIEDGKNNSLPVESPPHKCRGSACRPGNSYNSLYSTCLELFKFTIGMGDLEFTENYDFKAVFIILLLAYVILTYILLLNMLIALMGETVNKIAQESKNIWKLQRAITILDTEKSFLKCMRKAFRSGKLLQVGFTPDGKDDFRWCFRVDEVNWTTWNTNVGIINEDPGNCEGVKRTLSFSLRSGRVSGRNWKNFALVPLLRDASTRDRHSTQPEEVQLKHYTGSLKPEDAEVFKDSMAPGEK

B1: epithelial Na+ channel δ-subunit (δ-ENaC) (protein, UniProt P51172 1-802)
chain: MRAVLSQKTTPLPRYLWPGHLSGPRRLTWSWCSDHRTPTCRELGSPHPTPCTGPARGWPRRGGGPCGFTSAGHVLCGYPLCLLSGPIQGCGTGLGDSSMAFLSRTSPVAAASFQSRQEARGSILLQSCQLPPQWLSTEAWTGEWKQPHGGALTSRSPGPVAPQRPCHLKGWQHRPTQHNAACKQGQAAAQTPPRPGPPSAPPPPPKEGHQEGLVELPASFRELLTFFCTNATIHGAIRLVCSRGNRLKTTSWGLLSLGALVALCWQLGLLFERHWHRPVLMAVSVHSERKLLPLVTLCDGNPRRPSPVLRHLELLDEFARENIDSLYNVNLSKGRAALSATVPRHEPPFHLDREIRLQRLSHSGSRVRVGFRLCNSTGGDCFYRGYTSGVAAVQDWYHFHYVDILALLPAAWEDSHGSQDGHFVLSCSYDGLDCQARQFRTFHHPTYGSCYTVDGVWTAQRPGITHGVGLVLRVEQQPHLPLLSTLAGIRVMVHGRNHTPFLGHHSFSVRPGTEATISIREDEVHRLGSPYGHCTAGGEGVEVELLHNTSYTRQACLVSCFQQLMVETCSCGYYLHPLPAGAEYCSSARHPAWGHCFYRLYQDLETHRLPCTSRCPRPCRESAFKLSTGTSRWPSAKSAGWTLATLGEQGLPHQSHRQRSSLAKINIVYQELNYRSVEEAPVYSVPQLLSAMGSLCSLWFGASVLSLLELLELLLDASALTLVLGGRRLRRAWFSWPRASPASGASSIKPEASQMPPPAGGTSDDPEPSGPHLPRVMLPGVLAGVSAEESWAGPQPLETLDT

How the values were obtained:
[1] = target: G-protein-coupled estrogen receptor (GPER1) (human (endogenous in HBO cells)) (UniProt Q99527); assay: co-IP; HBO cell lysate (Triton X-100-based lysis buffer, protease and phosphatase inhibitors), 100 µg protein precleared with protein A/G agarose, overnight with antibody to ACE2, T1R3, TRPV1 or GPER1, protein A/G agarose, four washes in lysis buffer, immunoblot
[2] = target: T1, G-protein-coupled estrogen receptor (GPER1), mouse gastric smooth muscle (mouse (endogenous in gastric smooth muscle)) (UniProt Q8BMP4); assay: co-IP; mouse gastric smooth muscle (MGSM) lysate (Triton X-100-based lysis buffer), GPER1 antibody, protein A/G agarose, immunoblot
T1 sequence: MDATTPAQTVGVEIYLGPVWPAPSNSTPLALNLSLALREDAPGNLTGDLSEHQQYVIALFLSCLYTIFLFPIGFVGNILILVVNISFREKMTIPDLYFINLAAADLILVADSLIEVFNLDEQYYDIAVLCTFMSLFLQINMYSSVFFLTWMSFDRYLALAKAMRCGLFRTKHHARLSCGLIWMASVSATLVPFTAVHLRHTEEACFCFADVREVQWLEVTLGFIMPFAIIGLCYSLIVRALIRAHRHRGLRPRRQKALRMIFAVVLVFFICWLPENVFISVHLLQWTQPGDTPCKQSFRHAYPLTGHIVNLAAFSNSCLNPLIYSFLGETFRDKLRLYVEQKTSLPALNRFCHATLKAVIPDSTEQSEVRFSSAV

[3] = target: transient receptor potential cation channel subfamily V member 1 (TRPV1) (human (endogenous in HBO cells)) (UniProt Q8NER1); assay: co-IP; HBO cells, TRPV1 antibody as precipitating antibody, blot for δ-ENaC; IgG instead of TRPV1 antibody as control; data not shown

Molecule	binding [1]	binding [2]	binding [3]
transient receptor potential cation channel subfamily V member 1 (TRPV1) (from UniProt Q8NER1-1 1-839)	binds	–	–
ACE2, mouse gastric smooth muscle (from UniProt Q8R0I0 18-805)	–	binds	–
TRPV1, mouse gastric smooth muscle (from UniProt Q704Y3 1-839)	–	binds	–
angiotensin (Ang) II type 1 receptor (AT1R) (from UniProt P30556 1-359)	binds	–	–
B1	binds	–	binds
